Measured values reported in PubChem BioAssay AID504834 (National Center for Advancing Translational Sciences (NCATS), 2011).
About 22,000 (6.9%) of roughly 320,000 compounds were called active. The inconclusive results got no clear call from the source; some entries with a clear call stand among them for comparison. Calls follow the shape of the dose curve; as a rule, active = well fitted inhibition curve with a large enough effect; inconclusive = small, poorly fitted or top-dose-only effect, or another doubt; inactive = no such curve, though single readings can be large or run the other way. Where the call is inconclusive, the potency comes from a doubtful curve fit.

experiment: Primary qHTS for delayed death inhibitors of the malarial parasite plastid, 96 hour incubation; conditions: P. falciparum luciferase reporter growth; series mostly up to 28.7 µM
Outline: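 Two-generation exposure (96 h) targets delayed-death phenotype. Reporter parasites carrying integrated firefly luciferase, in red cells at 2% hematocrit and 0.05% parasitemia final, kept at 37 C, 5% CO2; luminescence loss indicates inhibition.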
Potency is read from the fitted curve at half-maximal effect.

Row | Compound | Potency
1 | Cc1ccc(OCc2nn3c(-c4n[nH]c5c4CCC5)nnc3s2)cc1 | inconclusive: 0.415 µM [inhibitor, partial curve, poor fit]
2 | Cc1cc(C)n2nc(SCc3ccc(F)cc3Cl)nc2n1 | inconclusive: 9.28 µM [inhibitor, single point]
3 | CCCCCCn1c(O)c(C=NC2CCCCC2N)c(=O)[nH]c1=O (configuration not stated) | active: 6.57 µM
4 | CCOC(=O)/C=C1\SCC(=O)N1CC(=O)NC(C)C | inactive
5 | O=C(NCC(c1cccs1)N1CCOCC1)c1cc(S(=O)(=O)N2CCOCC2)c(Cl)cc1Cl (configuration not stated) | inconclusive: 18.5 µM [inhibitor, single point]
6 | CCC(C)NC(=O)C1CCC(CNS(=O)(=O)c2ccc3c(c2)CC(C)N3C(=O)C2CC2)CC1 (configuration not stated) | inconclusive: 13.1 µM [inhibitor, partial curve]
7 | S=c1sc2c(N3CCN(Cc4ccccc4)CC3)ncnc2n1-c1ccccc1 | inconclusive: 0.0928 µM [inhibitor, full curve, poor fit]
8 | C/C(CCC(C)C)=N\NC(=O)COc1ccccc1-c1ccccc1 | inactive
9 | CC(=O)NC1C(OCc2ccccc2)OC2COC(C)(C)OC2C1O (configuration not stated) | inactive
10 | O=C(Nc1ccc(C(F)(F)F)cn1)Nc1cccs1 | inactive
11 | O=C(/C=C/c1ccccc1)Nn1cnc2ccccc2c1=O | inconclusive: 18.5 µM [inhibitor, single point]
12 | CCOC(=O)[C@H]1[C@H]2COc3cc(OC)ccc3[C@@H]2N2C(=O)c3cc(F)ccc3NC(=O)[C@@]12C | active: 10.4 µM
13 | CCN(CC)P(=O)(Nc1ccc(Br)cc1)c1c(C)nn(CCC#N)c1NC(=O)c1ccc(Cl)cc1 (configuration not stated) | inconclusive: 1.31 µM [inhibitor, full curve, poor fit]
14 | CNc1c(NS(=O)(=O)c2ccc(F)cc2)c(=O)oc2ccccc12 | inconclusive: 18.5 µM [inhibitor, single point]
15 | Oc1ccc2c(ccc3[nH]cnc32)c1 | inactive
16 | COCc1cc(C)nc(SCC(=O)Nc2ccc(C)c(C)c2)c1C#N | inactive
17 | Cc1ccccc1NC(=O)CC1C(=O)Nc2ccccc2N1CC(=O)N(C)C1CCS(=O)(=O)C1 (configuration not stated) | inactive
18 | Cc1ccc(Nc2cc(=O)oc3ccccc23)c(C)c1 | active: 0.131 µM
19 | CCOc1ccc(C2NC(=O)c3ccccc3O2)cc1 (configuration not stated) | inconclusive: 0.586 µM [inhibitor, full curve]
20 | CCCCCCc1c(O)c2ccccc2[nH]c1=O | inconclusive: 4.65 µM [inhibitor, single point]
21 | COc1ccccc1NC(=O)CSc1ccc2nnc(-c3ccccn3)n2n1 | inconclusive: 18.5 µM [inhibitor, single point]
22 | Cc1nc2scc(C)n2c(=O)c1S(=O)(=O)N1CCN(c2ccccn2)CC1 | inactive
23 | CC(=O)NNC(=S)Nc1cc(S(=O)(=O)N(C)C)ccc1C | inactive
24 | CCc1ccc(-c2cc(C(F)(F)F)n3nc(C(=O)Nc4cnn(Cc5ccc(C)cc5)c4)cc3n2)s1 | active: 4.65 µM

Row | Compound | Potency
25 | COc1cc(C2Nc3ccc4ccccc4c3C3=C2C(=O)CC(C)(C)C3)ccc1OC(C)C(=O)O (configuration not stated) | inconclusive: 4.65 µM [inhibitor, partial curve]
26 | CCOC(=O)CN(C(=O)COc1nc(C)cc(C)c1C#N)c1cccc(Cl)c1 | inconclusive: 7.38 µM [inhibitor, partial curve]
27 | CCc1nnc(NC(=O)CN2C(=O)c3ccccc3C2=O)s1 | inconclusive: 18.5 µM [inhibitor, single point]
28 | COc1ccc(NC(=O)CN(C)C(=O)Cc2c(C)nc3ccccc3c2C)cc1 | inconclusive: 10.4 µM [inhibitor, single point]
29 | Oc1ccc(C23CCCC2C2(CCCC2)c2ccc(O)cc2O3)c(O)c1 (configuration not stated) | inconclusive: 18.5 µM [inhibitor, single point]
30 | CC(Oc1ccc(-c2ccccc2)c(F)c1)c1ccn(S(=O)(=O)c2cccc3ccccc23)n1 (configuration not stated) | inconclusive: 16.5 µM [inhibitor, single point]
31 | O=C(Nc1ccccc1C(=O)N1CCCC1)C1CCN(c2ncccn2)CC1 | inconclusive: 4.15 µM [inhibitor, partial curve, poor fit]
32 | COc1ccc(C2CC(=O)Oc3c(C(CCN4CCCCC4)c4ccc(N(C)C)cc4)c(OC)cc(OC)c32)cc1 (configuration not stated) | active: 9.28 µM
33 | Cc1onc(-c2c(F)cccc2Cl)c1C(=O)NC(=S)NCc1cccnc1 | inactive
34 | Cc1ccc(CNC(=O)CCSCc2ccccc2C)cc1 | inactive
35 | CCOC(=O)c1c[nH][nH]c1=O | inactive
36 | CCn1nnc(NC(=O)c2cccnc2)n1 | inactive
37 | CCOC(=O)c1ccc(N(C(=O)c2cnccn2)C(C(=O)NC2CCCCC2)c2cn(C)nc2C)cc1 (configuration not stated) | inconclusive: 0.0037 µM [inhibitor, full curve, poor fit]
38 | COc1ccc(Cc2nnc(-c3ccc(F)cc3)o2)cc1OC | inconclusive: 2.33 µM [inhibitor, single point]
39 | O=C(c1cc2ccccc2oc1=O)N(Cc1ccco1)CC1CCCO1 (configuration not stated) | inconclusive: 18.5 µM [inhibitor, single point]
40 | CCn1c(=O)cc(SCC(=O)NCc2ccc(C)o2)c2ccccc21 | active: 11.7 µM
41 | COc1ccc(OCC(=O)NNc2nc3ccccc3s2)cc1 | inactive
42 | C#CC[N+](C)(C)CC#Cc1ccc(Cl)cc1 | inconclusive: 1.31 µM [inhibitor, full curve, poor fit]
43 | CN(C)c1cc[n+](CC(=O)c2cccs2)cc1 | inconclusive: 14.7 µM [inhibitor, partial curve, poor fit]
44 | CCOC(=O)CCc1c(C)c2ccc(OC3CCCCC3=O)cc2oc1=O (configuration not stated) | inactive
45 | COc1ccccc1OCCNC(=O)c1ccc2c(c1)OCCO2 | inactive
46 | Cc1ccc(C2=NN=C(NC(=O)C(F)(F)F)SC2)cc1 | inconclusive: 18.5 µM [inhibitor, single point]
47 | Cc1ccc(C(c2nnnn2C2CCCC2)N2c3ccccc3CC2C)cc1 (configuration not stated) | inconclusive: 3.7 µM [inhibitor, single point]
48 | Cc1cc(C)cc(OCC(=O)N2N=C(C(F)(F)F)CC2(O)C(C)(C)C)c1 (configuration not stated) | inconclusive: 13.1 µM [inhibitor, partial curve, poor fit]

Part of the list above in order of number of heavy atoms, smallest number first:
Row | Compound | Potency
27 | CCc1nnc(NC(=O)CN2C(=O)c3ccccc3C2=O)s1 | inconclusive: 18.5 µM [inhibitor, single point]
29 | Oc1ccc(C23CCCC2C2(CCCC2)c2ccc(O)cc2O3)c(O)c1 (configuration not stated) | inconclusive: 18.5 µM [inhibitor, single point]
31 | O=C(Nc1ccccc1C(=O)N1CCCC1)C1CCN(c2ncccn2)CC1 | inconclusive: 4.15 µM [inhibitor, partial curve, poor fit]

Remaining list, next part:

Row | Compound | Potency
49 | CC(=O)N1CCN(S(=O)(=O)c2cccc(C(=O)Nc3nccs3)c2)CC1 | inconclusive: 1.85 µM [inhibitor, single point]
50 | CCOC(=O)/C=C(C)/C=C/C=C(C)/C=C/c1c(C)cc(OC)c(C)c1C | inconclusive: 19 µM [inhibitor, single point]
51 | Cc1ccc(C)c(S(=O)(=O)N(C)C2CCS(=O)(=O)C2)c1 (configuration not stated) | inactive
52 | CC(C)CN(CC(C)C)c1nc(N)c(C#N)c(CC#N)c1C#N | inconclusive: 13.1 µM [inhibitor, partial curve, poor fit]
53 | Cc1cc([N+](=O)[O-])nn1CCCC(=O)NCc1ccccc1 | inconclusive: 8.28 µM [inhibitor, partial curve, poor fit]
54 | CC(C)Cn1c(SCc2nnc(-c3cccs3)o2)nc(O)cc1=O | inconclusive: 13.1 µM [inhibitor, single point]
55 | CN(C)CC1CSCCC1(O)c1cccc(Cl)c1 (configuration not stated) | inconclusive: 11.7 µM [inhibitor, partial curve, poor fit]
56 | Cc1nn(-c2ccccc2)c(Cl)c1/C=N/Nc1ccc(S(=O)(=O)Nc2ccccc2C(=O)O)cc1[N+](=O)[O-] | inconclusive: 10.4 µM [inhibitor, single point]
57 | CCc1ccc(NC(=O)C2CCN(C(=O)[C@@H]3Cc4ccccc4CN3)CC2)cc1 | inconclusive: 14.7 µM [inhibitor, partial curve, poor fit]
58 | CNC(=O)COC(=O)/C=C/c1ccco1 | inactive
59 | COc1ccccc1N1CCN(/N=C/c2ccc([N+](=O)[O-])cc2)CC1 | active: 10.4 µM
60 | COc1ccc(Sc2nc3ccccc3n3c(C(F)(F)F)nnc23)cc1 | inconclusive: 18.5 µM [inhibitor, single point]
61 | CCCN(CCC)CCNC(=O)CCC(=O)Nc1ccc2nc(N3CCN(C)CC3)cc(C)c2c1 | inconclusive: 18.5 µM [inhibitor, single point]
62 | CCCc1[nH]nc2c1C(c1cn[nH]c1-c1ccc(F)cc1)C(C#N)=C(N)O2 (configuration not stated) | inconclusive: 10.4 µM [inhibitor, partial curve, poor fit]
63 | O=C(Cc1ccc(Br)cc1)NC1CCN(Cc2ccccc2)CC1 | inactive
64 | O=C(NCCCN1CCOCC1)c1sc2cc(Cl)ccc2c1Cl | inactive
65 | O=C(CCCSc1nc2ccccc2[nH]1)Nc1ccccc1 | inconclusive: 18.5 µM [inhibitor, single point]
66 | COc1ccc(CCNC(=O)CN(c2ccc(OC)c(OC)c2)S(=O)(=O)c2ccc(C)cc2)cc1 | inactive
67 | CC(=O)Nc1ccc(C(=O)N2CCCc3ccccc32)cc1 | inconclusive: 8.28 µM [inhibitor, partial curve, poor fit]
68 | CCCNC(=S)N1CCN(C(c2ccccc2)c2ccccc2)CC1 | inconclusive: 18.5 µM [inhibitor, single point]
69 | CO/C(N)=C(\C#N)N=Cc1ccccc1Cl | inactive
70 | Cc1cc(C)cc(NC(=S)N2CCN(c3ccc(F)cc3)CC2)c1 | inconclusive: 11.7 µM [inhibitor, single point]
71 | Cc1ccc(C)c2sc(NC(=O)c3ccc(N4C(=O)CCC4=O)cc3)nc12 | inactive
72 | COC(=O)c1cc(C#N)c(OC(C)C)nc1C | inconclusive: 0.0047 µM [inhibitor, full curve, poor fit]
